The record followed here is publication doi:10.1101/2021.03.24.436811.

These are yes or no findings as the source states them, for the method shown. Binding seen in cells or lysates may run through a third protein. Binding calls can cover weak binding; strength is not graded here. Sequences can lack the tags named with a protein.

For the experiment, the target named is T1, 3HA-FBW2 (3x HA epitope at the N-terminus of the F-box protein FBW2) (Arabidopsis thaliana) (UniProt Q9ZPE4).
T1 sequence: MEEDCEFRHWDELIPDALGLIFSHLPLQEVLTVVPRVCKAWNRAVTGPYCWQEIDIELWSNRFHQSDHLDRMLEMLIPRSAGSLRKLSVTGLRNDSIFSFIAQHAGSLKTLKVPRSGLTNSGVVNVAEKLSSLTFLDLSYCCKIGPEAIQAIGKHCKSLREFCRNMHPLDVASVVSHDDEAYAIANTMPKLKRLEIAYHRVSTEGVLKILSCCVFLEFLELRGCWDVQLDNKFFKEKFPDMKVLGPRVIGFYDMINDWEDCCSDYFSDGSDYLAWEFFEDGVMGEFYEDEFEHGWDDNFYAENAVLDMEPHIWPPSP
The experiment in a line: co-IP.

As for RBX1, endogenous, the binding result was “binds”.
